Results published in the supplement of paper PMC8326762, “A Small Molecule Inhibitor of Pex3–Pex19 Interaction Disrupts Glycosome Biogenesis and Causes Lethality in Trypanosoma brucei” (Frontiers in Cell and Developmental Biology, 2021).
Where a name gives a salt, the structure may show the parent alone. This is one part of the list. The data scatter; read single values as rough.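 Optical density at 600 nm measured yeast growth. Because the two-hybrid strains grew without histidine, growth required Pex3–Pex19 binding. Trypanosome selectivity meant a compound inhibited the trypanosome-pair strain's growth by more than 65% but the human-pair strain's by less than 65%.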

How the values were obtained:
[1] = system: Saccharomyces cerevisiae HF7c pdr5Δ; assay: general growth inhibition of yeast HF7c pdr5Δ in -Leu -Trp medium, relative to DMSO; higher = stronger general growth inhibition; conditions: 100 µM; 24 h
[2] = system: human PEX3-PEX19 interaction (yeast two-hybrid); assay: growth inhibition of yeast two-hybrid strain reporting HsPex3-HsPex19 interaction, relative to DMSO; higher = stronger inhibition of human Pex3-Pex19 interaction / growth; conditions: 100 µM; 24 h; 3-aminotriazole 10 mM
[3] = system: T. brucei Pex3-Pex19 interaction (yeast two-hybrid); assay: growth inhibition of yeast two-hybrid strain reporting TbPex3-TbPex19 interaction, relative to DMSO; higher = stronger inhibition of T. brucei Pex3-Pex19 interaction / growth; conditions: 100 µM; 24 h

| SMILES | general growth inhibition [1] | growth inhibition [2] | growth inhibition [3] |
| --- | --- | --- | --- |
| O=C(O)CC[N+](=O)[O-] [3-Nitropropionic acid] | 40.3% | 50.4% | 72.6% |
| CC(C)(C)OC(=O)NC1[C@H]2CNC[C@@H]12 (some centres not stated) | 41.9% | 44.6% | 68.8% |
| Nc1ccncc1 [4-Aminopyridine] | 42.1% | 43% | 61.7% |
| CC(N)Cc1c[nH]c2ccc(O)cc12 (stereo not drawn) [alpha-Methyl-5-hydroxytryptamine maleate] | 52.1% | 45.7% | 63.1% |
| O=C(O)c1nn(Cc2ccc(Cl)cc2Cl)c2ccccc12 [Lonidamine] | 23% | 22.6% | 23.9% |
| CNC(=O)Oc1ccc2c(c1)[C@]1(C)CCN(C)[C@@H]1N2C [(-)-Physostigmine] | 12.7% | 32.7% | 40% |
| CN1CCC(c2c[nH]c3ccc(O)cc23)CC1 | 36.8% | 46.3% | 64% |
| O=C[C@H](Cl)[C@@H](O)[C@H](O)[C@H](O)CO [2-Chloro-2-deoxy-D-glucose] | 38.2% | 45.5% | 64.7% |
| Oc1ccc2c3c1O[C@H]1c4oc5ccccc5c4C[C@@]4(O)[C@@H](C2)N(CC2CC2)CC[C@]314 [Naltriben methanesulfonate] | 31.5% | 43% | 57.8% |
| Cc1nccc2c1[nH]c1ccccc12 [Harmane] | 31.8% | 15.6% | 55.5% |
| N[C@@H]1C[C@H]1c1ccccc1 [Tranylcypromine hydrochloride] | 47.2% | 54.5% | 64.6% |
| CC(N)Cc1cccc(C(F)(F)F)c1 (single isomer, unassigned; (+)) [(+)-Norfenfluramine hydrochloride] | 52.3% | 49.1% | 70% |
| CC(N)Cc1c[nH]c2ccc(OCc3cccs3)cc12 (configuration not stated) | 34.6% | 36.3% | 57.9% |
| N#C/C(=C\c1ccc(O)c(O)c1)C(N)=S [Tyrphostin 47] | 40.1% | 38.2% | 53.1% |
| C=C(C)[C@@H]1[C@H]2OC(=O)[C@@H]1[C@]1(O)C[C@H]3OC34C(=O)O[C@H]2[C@@]41C.CC(C)(O)[C@@H]1[C@H]2OC(=O)[C@@H]1[C@]1(O)C[C@H]3OC34C(=O)O[C@H]2[C@@]41C (some centres not stated) [Picrotoxin] | 57.9% | 51.9% | 71.8% |
| CN1CCc2cccc(Cl)c2CC1 | 47% | 45.2% | 60.9% |
| C[N+]1(C)[C@@H]2CC(OC(=O)[C@H](CO)c3ccccc3)C[C@H]1[C@@H]1O[C@@H]12 (single isomer, unassigned; (-)) [(-)-Scopolamine methyl nitrate] | 51.3% | 50.1% | 61.5% |
| CCCN1C[C@H](CSC)C[C@@H]2c3cccc4[nH]cc(c34)C[C@H]21 [Pergolide methanesulfonate] | 57.5% | 54.2% | 65.3% |
| CNc1ccc2oc(C[C@H]3O[C@@]4(CC[C@H]3C)O[C@H]([C@H](C)C(=O)c3ccc[nH]3)[C@H](C)C[C@H]4C)nc2c1C(=O)O [Calcimycin] | 66.6% | 49.6% | 47.5% |
| C[N+](C)(C)CCCCCCCCCC[N+](C)(C)C [Decamethonium dibromide] | 17.3% | 9.37% | 59% |
| CC(NC(C)(C)C)C(=O)c1cccc(Cl)c1 (configuration not stated) [Bupropion hydrochloride] | 31.6% | 35.1% | 57.6% |
| CCCCc1ccc(C(=O)O)nc1 [Fusaric acid] | 46.2% | 47.4% | 58% |

| SMILES | general growth inhibition [1] | growth inhibition [2] | growth inhibition [3] |
| --- | --- | --- | --- |
| CC(C)NP(=O)(NC(C)C)OP(=O)(NC(C)C)NC(C)C [Tetraisopropyl pyrophosphoramide] | 48.1% | 50.8% | 52.3% |
| NC(=O)c1ccc(OCC(O)CN2CC=C(c3ccc(F)cc3)CC2)cc1 (configuration not stated) | 31.4% | 10.6% | 42% |
| NC(N)=NOCC[C@H](N)C(=O)O [L-Canavanine] | 23.8% | 29.1% | 46% |
| CC[C@@]1(O)C(=O)OCc2c1cc1n(c2=O)Cc2cc3ccccc3nc2-1 [(S)-(+)-Camptothecin] | 21.4% | 11.7% | 35.8% |
| c1ccc2sc(C3(N4CCCCC4)CCCCC3)cc2c1 [BTCP hydrochloride] | 24.2% | 28.8% | 58.6% |
| C=CCN1CC[C@]23CCCC[C@H]2[C@H]1Cc1ccc(O)cc13 [Levallorphan tartrate] | 47.1% | 38.8% | 53.5% |
| c1ccc(C2(c3ccccc3)CC2C2=NCCN2)cc1 (configuration not stated) [Cibenzoline succinate] | 50.6% | 46.5% | 69.2% |
| CC1C2Cc3ccc(O)cc3C1(C)CCN2CC1CC1 (single isomer, unassigned; (+)) [(+)-Cyclazocine] | 37.2% | 49.4% | 58.3% |
| N#CCCN [3-Aminopropionitrile fumarate] | 50.8% | 46.9% | 56% |
| CCCN1CCc2cccc3c2[C@H]1Cc1ccc(O)c(O)c1-3 [R(-)-Propylnorapomorphine hydrochloride] | 36.6% | 30% | 60.8% |
| COc1ccc(OC)c(C(O)C(C)N)c1 (configuration not stated) [Methoxamine hydrochloride] | 52% | 45.1% | 67.5% |
| CC(=O)c1c(O)c(C)c(O)c(Cc2c(O)c3c(c(C(=O)/C=C/c4ccccc4)c2O)OC(C)(C)C=C3)c1O [Rottlerin] | 43.8% | 16.6% | 21.1% |
| CNCCc1ccc(O)c(O)c1 [N-Methyldopamine hydrochloride] | 31.9% | 47.6% | 60.4% |
| Cc1cc([C@@H]2CCCN2C)on1 [ABT-418 hydrochloride] | 30.3% | 26.4% | 48.7% |
| CCCCCCCCCCCCCC(=O)O[C@@H]1[C@@H](C)[C@@]2(O)[C@@H](C=C(CO)C[C@]3(O)C(=O)C(C)=C[C@@H]23)[C@@H]2C(C)(C)[C@]12OC(C)=O [Phorbol 12-myristate 13-acetate] | 30.7% | 27.7% | 49.5% |
| NC(CP(=O)(O)O)C(=O)O (racemic) [(±)-2-Amino-3-phosphonopropionic acid] | 40.5% | 42.3% | 59.8% |
| C[N+]1(C)CCN(c2ccccc2)CC1 [1,1-Dimethyl-4-phenyl-piperazinium iodide] | 15.8% | 37.3% | 53% |
| O=C1C=CC(=O)C=C1 [p-Benzoquinone] | 74.1% | 42.3% | 73% |
| NC(=O)CN1CCCC1=O [Piracetam] | 43.3% | 45.8% | 52% |
| NC1CCc2cc(O)c(O)cc2C1 (configuration not stated) [6,7-ADTN hydrobromide] | 32.7% | 41.1% | 47.7% |
| COC(=O)C1=CCCN(C)C1 [Arecoline hydrobromide] | 49.9% | 42.3% | 58% |
| C#CCOC(=O)C1=CCCN(C)C1 [Arecaidine propargyl ester hydrobromide] | 43.6% | 44.4% | 64.1% |

| SMILES | general growth inhibition [1] | growth inhibition [2] | growth inhibition [3] |
| --- | --- | --- | --- |
| C=CCN1C[C@H](C)N([C@H](c2ccc(C(=O)N(CC)CC)cc2)c2cccc(OC)c2)C[C@H]1C | 47.6% | 29.8% | 48.2% |
| CS(=N)(=O)CC[C@H](N)C(=O)O (stereo partly drawn) [L-Methionine sulfoximine] | 30.2% | 39% | 53% |
| C[N+]1(C)[C@@H]2CC[C@H]1C[C@@H](OC(=O)C(CO)c1ccccc1)C2 (some centres not stated) [Atropine methyl nitrate] | 41.2% | 42.9% | 50.9% |
| Cc1cccc(C)c1NC1=NCCCS1 [Xylazine hydrochloride] | 51.4% | 54.8% | 72.1% |
| CC[C@@H](C(N)=O)N1CCCC1=O [Levetiracetam] | 54.8% | 49.8% | 69.2% |
| N[C@]1(C(=O)O)CC[C@H](C(=O)O)C1 (racemic) [trans-(±)-ACPD] | 43.3% | 41.5% | 59.2% |
| CCCN1CC[C@@H]2c3cc(O)ccc3CC[C@@H]21 (racemic) [cis(+/-)-8-OH-PBZI hydrobromide] | 45.5% | 40.5% | 70.7% |
| CN1[C@@H]2C[C@@H](OC(=O)[C@H](CO)c3ccccc3)C[C@H]1[C@@H]1O[C@@H]12 [(-)-Scopolamine hydrobromide] | 50.4% | 50.5% | 72.6% |
| C[C@]12CC[C@@H](O)C[C@@H]1CC[C@@H]1[C@@H]2CC[C@]2(C)[C@@H](C(=O)CO)CC[C@@H]12 [3-alpha,21-Dihydroxy-5-alpha-pregnan-20-one] | 57.4% | 53.6% | 64.8% |
| COc1ccc(C(CN(C)C)C2(O)CCCCC2)cc1 (configuration not stated) [Venlafaxine hydrochloride] | 35.1% | 35.9% | 64.9% |
| N#CC(C#N)=Cc1ccc(O)c(O)c1 [Tyrphostin 23] | 61.7% | 52.3% | 67.6% |
| O=P1(N(CCCl)CCCl)NCCCO1 (configuration not stated) [Cyclophosphamide monohydrate] | 8.18% | 2.78% | 28.1% |
| CCC1(c2ccc(N)cc2)CCC(=O)NC1=O (racemic) [(±)-p-Aminoglutethimide] | 46.1% | 40.3% | 52.4% |
| N=C(N)c1ccc(CS(=O)(=O)F)cc1 [4-Amidinophenylmethanesulfonyl fluoride hydrochloride] | 46.3% | 45.6% | 72.4% |
| CCNC(=O)[C@H]1O[C@@H](n2cnc3c(N)ncnc32)[C@H](O)[C@@H]1O [5'-N-Ethylcarboxamidoadenosine] | 26% | 51.9% | 59.5% |
| NC(=O)CN1CC(O)CC1=O (configuration not stated) [Oxiracetam] | 51.2% | 56.7% | 64.1% |
| c1ccc2c(N3CCNCC3)cccc2c1 [1-(1-Naphthyl)piperazine hydrochloride] | 39.4% | 50.4% | 58.2% |
| NCCCNCCSP(=O)(O)O [Amifostine] | 52.4% | 47.9% | 65.6% |
| NCC(O)c1ccc(O)cc1 (racemic) [(±)-Octopamine hydrochloride] | 44.6% | 53.6% | 61.2% |
| COc1ccc2c(c[n+](C)c3c4cc5c(cc4ccc23)OCO5)c1OC [Chelerythrine chloride] | 52.9% | 35% | 41.8% |

Among those listed so far, 2 have a tert-butyl group:

| SMILES | general growth inhibition [1] | growth inhibition [2] | growth inhibition [3] |
| --- | --- | --- | --- |
| CC(C)(C)OC(=O)NC1[C@H]2CNC[C@@H]12 (some centres not stated) | 41.9% | 44.6% | 68.8% |
| CC(NC(C)(C)C)C(=O)c1cccc(Cl)c1 (configuration not stated) [Bupropion hydrochloride] | 31.6% | 35.1% | 57.6% |
